# Measurements from patent US10858384B2, “Synthetic molecule constructs” (KODE BIOTECH LIMITED, priority 2004, dated 2020).
# For at least one compound, name, drawing or mass did not settle the structure.
# System: group O red blood cells (RBCs)
# Assay: Diamed gel-card agglutination of group O RBCs transformed at 37° C. with synthetic glycolipids
# Format: cell-based, human
# Design: Albaclone anti-A, Diamed / Bioclone anti-A, Diamed / Agglutination, Diamed gel-cards, Albaclone anti-A / Agglutination, Diamed gel-cards, Bioclone anti-A / Agglutination, Diamed gel-cards, Albaclone anti-B: scale not given here
# Method: Washed packed group O red blood cells (RBCs) (3 parts by volume) and the synthetic glycolipid solution (1 part by volume, varying concentrations) were added to an eppendorf tube. The tube was incubated in a 37° C. waterbath for one hour, mixing every 15 minutes. […]
# Tube serology and Diamed gel-card results for RBCs transformed with the different synthetic molecule constructs are provided in Table 38. Results for the stability of the RBCs transformed with the different synthetic glycolipids at different concentrations are provided in Tables 39 to 44.
structure (smiles),measurement,setting,value
CCCCCCCC/C=C\CCCCCCCC(=O)OC[C@H](COP(=O)(O)OCCNC(=O)CCCCC(=O)NCCCO[C@@H]1O[C@H](CO)[C@H](O)[C@H](O[C@H]2O[C@H](CO)[C@H](O)[C@H](O)[C@H]2O)[C@H]1O[C@@H]1O[C@@H](C)[C@@H](O)[C@@H](O)[C@@H]1O)OC(=O)CCCCCCC/C=C\CCCCCCCC [Btri-sp-Ad-DOPE (VI)],"Agglutination, Diamed gel-cards, Albaclone anti-B","0.25 mg/mL, Day 2, Alsevers",2+
same,"Agglutination, Diamed gel-cards, Bioclone anti-B","0.25 mg/mL, Day 2, Alsevers",2+
same,"Agglutination, Diamed gel-cards, Albaclone anti-B","0.25 mg/mL, Day 2, Cellstab",2+
same,"Agglutination, Diamed gel-cards, Bioclone anti-B","0.25 mg/mL, Day 2, Cellstab",2+
same,"Agglutination, Diamed gel-cards, Albaclone anti-B","0.25 mg/mL, Day 9, Alsevers",2+
same,"Agglutination, Diamed gel-cards, Bioclone anti-B","0.25 mg/mL, Day 9, Alsevers",2+
same,"Agglutination, Diamed gel-cards, Albaclone anti-B","0.25 mg/mL, Day 9, Cellstab",3+
same,"Agglutination, Diamed gel-cards, Bioclone anti-B","0.25 mg/mL, Day 9, Cellstab",3+
same,"Agglutination, Diamed gel-cards, Albaclone anti-B","0.25 mg/mL, Day 16, Alsevers",2+
same,"Agglutination, Diamed gel-cards, Bioclone anti-B","0.25 mg/mL, Day 16, Alsevers",1+
same,"Agglutination, Diamed gel-cards, Albaclone anti-B","0.25 mg/mL, Day 16, Cellstab",3+
same,"Agglutination, Diamed gel-cards, Bioclone anti-B","0.25 mg/mL, Day 16, Cellstab",3+
same,"Agglutination, Diamed gel-cards, Albaclone anti-B","0.25 mg/mL, Day 23, Alsevers",3+
same,"Agglutination, Diamed gel-cards, Bioclone anti-B","0.25 mg/mL, Day 23, Alsevers",3+
same,"Agglutination, Diamed gel-cards, Albaclone anti-B","0.25 mg/mL, Day 23, Cellstab",3+
same,"Agglutination, Diamed gel-cards, Bioclone anti-B","0.25 mg/mL, Day 23, Cellstab",3+
same,"Agglutination, Diamed gel-cards, Albaclone anti-B","0.25 mg/mL, Day 30, Alsevers",3+
same,"Agglutination, Diamed gel-cards, Bioclone anti-B","0.25 mg/mL, Day 30, Alsevers",3+
same,"Agglutination, Diamed gel-cards, Albaclone anti-B","0.25 mg/mL, Day 30, Cellstab",3+
same,"Agglutination, Diamed gel-cards, Bioclone anti-B","0.25 mg/mL, Day 30, Cellstab",3+
same,"Agglutination, Diamed gel-cards, Albaclone anti-B","0.25 mg/mL, Day 37, Alsevers",3+
same,"Agglutination, Diamed gel-cards, Bioclone anti-B","0.25 mg/mL, Day 37, Alsevers",3+
same,"Agglutination, Diamed gel-cards, Albaclone anti-B","0.25 mg/mL, Day 37, Cellstab",3+
same,"Agglutination, Diamed gel-cards, Bioclone anti-B","0.25 mg/mL, Day 37, Cellstab",3+
same,"Agglutination, Diamed gel-cards, Albaclone anti-B","0.25 mg/mL, Day 44, Alsevers",2+
same,"Agglutination, Diamed gel-cards, Bioclone anti-B","0.25 mg/mL, Day 44, Alsevers",3+
same,"Agglutination, Diamed gel-cards, Albaclone anti-B","0.25 mg/mL, Day 44, Cellstab",3+
same,"Agglutination, Diamed gel-cards, Bioclone anti-B","0.25 mg/mL, Day 44, Cellstab",4+/3+
same,"Agglutination, Diamed gel-cards, Albaclone anti-B","0.25 mg/mL, Day 51, Alsevers",2+
same,"Agglutination, Diamed gel-cards, Bioclone anti-B","0.25 mg/mL, Day 51, Alsevers",3+
same,"Agglutination, Diamed gel-cards, Albaclone anti-B","0.25 mg/mL, Day 51, Cellstab",3+
same,"Agglutination, Diamed gel-cards, Bioclone anti-B","0.25 mg/mL, Day 51, Cellstab",3+
same,"Agglutination, Diamed gel-cards, Albaclone anti-B","0.25 mg/mL, Day 58, Alsevers",1+
same,"Agglutination, Diamed gel-cards, Bioclone anti-B","0.25 mg/mL, Day 58, Alsevers",2+
same,"Agglutination, Diamed gel-cards, Albaclone anti-B","0.25 mg/mL, Day 58, Cellstab",2+
same,"Agglutination, Diamed gel-cards, Bioclone anti-B","0.25 mg/mL, Day 58, Cellstab",2+
same,"Agglutination, Diamed gel-cards, Albaclone anti-B","0.25 mg/mL, Day 72, Alsevers",2+
same,"Agglutination, Diamed gel-cards, Bioclone anti-B","0.25 mg/mL, Day 72, Alsevers",3+
same,"Agglutination, Diamed gel-cards, Albaclone anti-B","0.25 mg/mL, Day 72, Cellstab",3+/2+
same,"Agglutination, Diamed gel-cards, Bioclone anti-B","0.25 mg/mL, Day 72, Cellstab",3+
same,"Agglutination, Diamed gel-cards, Albaclone anti-B","0.25 mg/mL, Day 87, Cellstab",1+
same,"Agglutination, Diamed gel-cards, Bioclone anti-B","0.25 mg/mL, Day 87, Cellstab",2+/1+
same,"Agglutination, Diamed gel-cards, Bioclone anti-B","0.25 mg/mL, Day 116, Cellstab",1+
same,"Agglutination, Diamed gel-cards, Albaclone anti-B","0.5 mg/mL, Day 2, Alsevers",4+
same,"Agglutination, Diamed gel-cards, Bioclone anti-B","0.5 mg/mL, Day 2, Alsevers",4+
same,"Agglutination, Diamed gel-cards, Albaclone anti-B","0.5 mg/mL, Day 2, Cellstab",4+
same,"Agglutination, Diamed gel-cards, Bioclone anti-B","0.5 mg/mL, Day 2, Cellstab",4+
same,"Agglutination, Diamed gel-cards, Albaclone anti-B","0.5 mg/mL, Day 9, Alsevers",4+
same,"Agglutination, Diamed gel-cards, Bioclone anti-B","0.5 mg/mL, Day 9, Alsevers",4+
same,"Agglutination, Diamed gel-cards, Albaclone anti-B","0.5 mg/mL, Day 9, Cellstab",4+
same,"Agglutination, Diamed gel-cards, Bioclone anti-B","0.5 mg/mL, Day 9, Cellstab",4+
same,"Agglutination, Diamed gel-cards, Albaclone anti-B","0.5 mg/mL, Day 16, Alsevers",4+
same,"Agglutination, Diamed gel-cards, Bioclone anti-B","0.5 mg/mL, Day 16, Alsevers",4+
same,"Agglutination, Diamed gel-cards, Albaclone anti-B","0.5 mg/mL, Day 16, Cellstab",4+
same,"Agglutination, Diamed gel-cards, Bioclone anti-B","0.5 mg/mL, Day 16, Cellstab",4+
same,"Agglutination, Diamed gel-cards, Albaclone anti-B","0.5 mg/mL, Day 23, Alsevers",4+
same,"Agglutination, Diamed gel-cards, Bioclone anti-B","0.5 mg/mL, Day 23, Alsevers",4+
same,"Agglutination, Diamed gel-cards, Albaclone anti-B","0.5 mg/mL, Day 23, Cellstab",4+
same,"Agglutination, Diamed gel-cards, Bioclone anti-B","0.5 mg/mL, Day 23, Cellstab",4+
same,"Agglutination, Diamed gel-cards, Albaclone anti-B","0.5 mg/mL, Day 30, Alsevers",4+
same,"Agglutination, Diamed gel-cards, Bioclone anti-B","0.5 mg/mL, Day 30, Alsevers",4+
same,"Agglutination, Diamed gel-cards, Albaclone anti-B","0.5 mg/mL, Day 30, Cellstab",4+
same,"Agglutination, Diamed gel-cards, Bioclone anti-B","0.5 mg/mL, Day 30, Cellstab",4+
same,"Agglutination, Diamed gel-cards, Albaclone anti-B","0.5 mg/mL, Day 37, Alsevers",4+
same,"Agglutination, Diamed gel-cards, Bioclone anti-B","0.5 mg/mL, Day 37, Alsevers",4+
same,"Agglutination, Diamed gel-cards, Albaclone anti-B","0.5 mg/mL, Day 37, Cellstab",4+
same,"Agglutination, Diamed gel-cards, Bioclone anti-B","0.5 mg/mL, Day 37, Cellstab",4+
same,"Agglutination, Diamed gel-cards, Albaclone anti-B","0.5 mg/mL, Day 44, Alsevers",4+
same,"Agglutination, Diamed gel-cards, Bioclone anti-B","0.5 mg/mL, Day 44, Alsevers",4+
same,"Agglutination, Diamed gel-cards, Albaclone anti-B","0.5 mg/mL, Day 44, Cellstab",4+
same,"Agglutination, Diamed gel-cards, Bioclone anti-B","0.5 mg/mL, Day 44, Cellstab",4+
same,"Agglutination, Diamed gel-cards, Albaclone anti-B","0.5 mg/mL, Day 51, Alsevers",4+
same,"Agglutination, Diamed gel-cards, Bioclone anti-B","0.5 mg/mL, Day 51, Alsevers",4+
same,"Agglutination, Diamed gel-cards, Albaclone anti-B","0.5 mg/mL, Day 51, Cellstab",4+
same,"Agglutination, Diamed gel-cards, Bioclone anti-B","0.5 mg/mL, Day 51, Cellstab",4+
same,"Agglutination, Diamed gel-cards, Albaclone anti-B","0.5 mg/mL, Day 58, Cellstab",4+
same,"Agglutination, Diamed gel-cards, Bioclone anti-B","0.5 mg/mL, Day 58, Cellstab",4+
same,"Agglutination, Diamed gel-cards, Albaclone anti-B","0.5 mg/mL, Day 72, Cellstab",4+
same,"Agglutination, Diamed gel-cards, Bioclone anti-B","0.5 mg/mL, Day 72, Cellstab",4+
same,"Agglutination, Diamed gel-cards, Albaclone anti-B","0.5 mg/mL, Day 87, Cellstab",4+/3+
same,"Agglutination, Diamed gel-cards, Bioclone anti-B","0.5 mg/mL, Day 87, Cellstab",4+/3+
same,"Agglutination, Diamed gel-cards, Albaclone anti-B","0.5 mg/mL, Day 116, Cellstab",3+
same,"Agglutination, Diamed gel-cards, Bioclone anti-B","0.5 mg/mL, Day 116, Cellstab",4+/3+
same,"Agglutination, Diamed gel-cards, Albaclone anti-B","1 mg/mL, Day 2, Alsevers",4+
same,"Agglutination, Diamed gel-cards, Bioclone anti-B","1 mg/mL, Day 2, Alsevers",4+
same,"Agglutination, Diamed gel-cards, Albaclone anti-B","1 mg/mL, Day 2, Cellstab",4+
same,"Agglutination, Diamed gel-cards, Bioclone anti-B","1 mg/mL, Day 2, Cellstab",4+
same,"Agglutination, Diamed gel-cards, Albaclone anti-B","1 mg/mL, Day 9, Alsevers",4+
same,"Agglutination, Diamed gel-cards, Bioclone anti-B","1 mg/mL, Day 9, Alsevers",4+
same,"Agglutination, Diamed gel-cards, Albaclone anti-B","1 mg/mL, Day 9, Cellstab",4+
same,"Agglutination, Diamed gel-cards, Bioclone anti-B","1 mg/mL, Day 9, Cellstab",4+
same,"Agglutination, Diamed gel-cards, Albaclone anti-B","1 mg/mL, Day 16, Alsevers",4+
same,"Agglutination, Diamed gel-cards, Bioclone anti-B","1 mg/mL, Day 16, Alsevers",4+
same,"Agglutination, Diamed gel-cards, Albaclone anti-B","1 mg/mL, Day 16, Cellstab",4+
same,"Agglutination, Diamed gel-cards, Bioclone anti-B","1 mg/mL, Day 16, Cellstab",4+
same,"Agglutination, Diamed gel-cards, Albaclone anti-B","1 mg/mL, Day 23, Alsevers",4+
same,"Agglutination, Diamed gel-cards, Bioclone anti-B","1 mg/mL, Day 23, Alsevers",4+
same,"Agglutination, Diamed gel-cards, Albaclone anti-B","1 mg/mL, Day 23, Cellstab",4+
same,"Agglutination, Diamed gel-cards, Bioclone anti-B","1 mg/mL, Day 23, Cellstab",4+
same,"Agglutination, Diamed gel-cards, Albaclone anti-B","1 mg/mL, Day 30, Alsevers",4+
same,"Agglutination, Diamed gel-cards, Bioclone anti-B","1 mg/mL, Day 30, Alsevers",4+
same,"Agglutination, Diamed gel-cards, Albaclone anti-B","1 mg/mL, Day 30, Cellstab",4+
same,"Agglutination, Diamed gel-cards, Bioclone anti-B","1 mg/mL, Day 30, Cellstab",4+
same,"Agglutination, Diamed gel-cards, Albaclone anti-B","1 mg/mL, Day 37, Alsevers",4+
same,"Agglutination, Diamed gel-cards, Bioclone anti-B","1 mg/mL, Day 37, Alsevers",4+
same,"Agglutination, Diamed gel-cards, Albaclone anti-B","1 mg/mL, Day 37, Cellstab",4+
same,"Agglutination, Diamed gel-cards, Bioclone anti-B","1 mg/mL, Day 37, Cellstab",4+
same,"Agglutination, Diamed gel-cards, Albaclone anti-B","1 mg/mL, Day 44, Alsevers",4+
same,"Agglutination, Diamed gel-cards, Bioclone anti-B","1 mg/mL, Day 44, Alsevers",4+
same,"Agglutination, Diamed gel-cards, Albaclone anti-B","1 mg/mL, Day 44, Cellstab",4+
same,"Agglutination, Diamed gel-cards, Bioclone anti-B","1 mg/mL, Day 44, Cellstab",4+
same,"Agglutination, Diamed gel-cards, Albaclone anti-B","1 mg/mL, Day 51, Alsevers",4+
same,"Agglutination, Diamed gel-cards, Bioclone anti-B","1 mg/mL, Day 51, Alsevers",4+
same,"Agglutination, Diamed gel-cards, Albaclone anti-B","1 mg/mL, Day 51, Cellstab",4+
same,"Agglutination, Diamed gel-cards, Bioclone anti-B","1 mg/mL, Day 51, Cellstab",4+
same,"Agglutination, Diamed gel-cards, Albaclone anti-B","1 mg/mL, Day 58, Alsevers",4+
same,"Agglutination, Diamed gel-cards, Bioclone anti-B","1 mg/mL, Day 58, Alsevers",4+
same,"Agglutination, Diamed gel-cards, Albaclone anti-B","1 mg/mL, Day 58, Cellstab",4+
same,"Agglutination, Diamed gel-cards, Bioclone anti-B","1 mg/mL, Day 58, Cellstab",4+
same,"Agglutination, Diamed gel-cards, Albaclone anti-B","1 mg/mL, Day 72, Alsevers",4+
same,"Agglutination, Diamed gel-cards, Bioclone anti-B","1 mg/mL, Day 72, Alsevers",4+
same,"Agglutination, Diamed gel-cards, Albaclone anti-B","1 mg/mL, Day 72, Cellstab",4+
same,"Agglutination, Diamed gel-cards, Bioclone anti-B","1 mg/mL, Day 72, Cellstab",4+
same,"Agglutination, Diamed gel-cards, Albaclone anti-B","1 mg/mL, Day 87, Cellstab",4+
same,"Agglutination, Diamed gel-cards, Bioclone anti-B","1 mg/mL, Day 87, Cellstab",4+
same,"Agglutination, Diamed gel-cards, Albaclone anti-B","1 mg/mL, Day 116, Cellstab",4+
same,"Agglutination, Diamed gel-cards, Bioclone anti-B","1 mg/mL, Day 116, Cellstab",4+
